Cleaved PARP after 72 h of treatment

Values as published with doi:10.1371/journal.pone.0140310, rounded.

All values are for the listed drug together with midostaurin (400 nM): CO[C@@H]1[C@H](N(C)C(=O)c2ccccc2)C[C@H]2O[C@]1(C)n1c3ccccc3c3c4c(c5c6ccccc6n2c5c31)C(=O)NC4

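The test systems are human melanoma cell lines, treated with two drugs together for 72 h and then stained and imaged. The read-out is the fraction of cleaved-PARP-positive nuclei, in % of that fraction in the DMSO control; 200 means twice the control level of this apoptosis marker. Concentrations were fixed for each drug; these are the higher of two levels. No replicate spread is given; individual values may be noisy. Basal and induced levels differ widely between cell lines.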 This is part of the screen, not chosen by result. A dash means that no value is listed here.

| Partner | 501mel | LOX IMVI | COLO 829 | RPMI-7951 | A375 | G-361 | WM115 | IPC-298 | A2058 | LB2518-MEL | WM3526 | MeWo | SK-MEL-5 | UACC-62 | WM3619 |
|---|---|---|---|---|---|---|---|---|---|---|---|---|---|---|---|
| Nc1ccn([C@@H]2O[C@H](CO)[C@@H](O)C2(F)F)c(=O)n1 at 2 nM | - | 469 | 308 | 107 | - | 453 | 848 | 158 | 471 | 161 | 144 | 329 | 130 | 129 | 271 |
| O=C(Nc1cccc(Cl)c1)Nc1ncc(CCNc2ncnc3ccsc23)s1 at 4 nM | - | 127 | 150 | 84.0 | - | 444 | 732 | 387 | 1340 | 230 | 371 | 154 | 145 | 54.9 | 156 |
| CC(=O)O[C@@]12CO[C@@H]1C[C@H](O)[C@@]1(C)C(=O)[C@H](O)C3=C(C)[C@@H](OC(=O)[C@H](O)[C@@H](NC(=O)OC(C)(C)C)c4ccccc4)C[C@@](O)([C@@H](OC(=O)c4ccccc4)[C@H]21)C3(C)C at 0.5 nM | - | 147 | 173 | 175 | - | 1130 | 650 | 161 | 5150 | 395 | 1660 | 1410 | 1370 | 186 | 130 |
| O=C(CCCCCCC(=O)Nc1ccccc1)NO at 400 nM | - | 154 | 300 | 635 | - | 385 | 436 | 149 | 431 | 563 | 482 | 194 | 206 | 132 | 145 |
| N.N.[Cl][Pt][Cl] at 8000 nM | - | 104 | 84.6 | 336 | - | 498 | 565 | 163 | 175 | 192 | 365 | 120 | 383 | 180 | 355 |
| Cn1c(=O)n(-c2ccc(C(C)(C)C#N)cc2)c2c3cc(-c4cnc5ccccc5c4)ccc3ncc21 at 20 nM | - | 197 | 96.7 | 155 | - | 202 | 159 | 39.8 | 185 | 42.1 | 242 | 148 | 359 | 237 | 163 |
| C=CCn1c(=O)c2cnc(Nc3ccc(N4CCN(C)CC4)cc3)nc2n1-c1cccc(C(C)(C)O)n1 at 100 nM | - | 235 | 230 | 223 | - | 481 | 1220 | 90.5 | 325 | 206 | 720 | 237 | 493 | 142 | 301 |
| CCN(CC)CCCCNc1ncc2cc(-c3cc(OC)cc(OC)c3)c(NC(=O)NC(C)(C)C)nc2n1 at 500 nM | 73.5 | 97.5 | 185 | 53.9 | 96.6 | 186 | 417 | 74.1 | 327 | 167 | 136 | 94.0 | 176 | 89.9 | 141 |
| COCC[n+]1c2c(n(Cc3cnccn3)c1C)C(=O)c1ccccc1C2=O at 2 nM | - | 118 | 179 | 184 | - | 371 | 367 | 2500 | 1520 | 955 | 3090 | 619 | 305 | 166 | 123 |
| NCC(=O)Nc1ccc(-n2nc(C(F)(F)F)cc2-c2ccc3c(ccc4ccccc43)c2)cc1 at 5000 nM | - | 369 | 272 | 195 | - | 545 | 637 | 353 | 318 | 588 | 1250 | 136 | 497 | 191 | 187 |
| CS(=O)(=O)CCNCc1ccc(-c2ccc3ncnc(Nc4ccc(OCc5cccc(F)c5)c(Cl)c4)c3c2)o1 at 4000 nM | - | 84.0 | 204 | 263 | - | 177 | 233 | 278 | 972 | 363 | 793 | 164 | 600 | 229 | 117 |
| C[C@]1(c2nc3c(C(N)=O)cccc3[nH]2)CCCN1 at 7000 nM | - | 57.6 | 129 | 167 | - | 131 | 217 | 162 | 342 | 261 | 333 | 259 | 462 | 192 | 166 |
| CN1CCN(c2ccc3nc(-c4c(N)c5c(F)cccc5[nH]c4=O)[nH]c3c2)CC1 at 500 nM | - | 332 | 327 | 329 | - | 344 | 131 | 213 | 936 | 186 | 180 | 351 | 115 | 84.5 | 85.3 |
| Cn1cnc2c(F)c(Nc3ccc(Br)cc3Cl)c(C(=O)NOCCO)cc21 at 75 nM | - | 104 | 128 | 51.3 | - | 257 | 158 | 240 | 215 | 112 | 285 | 144 | 171 | 263 | 122 |
| NC1(c2ccc(-c3nc4ccn5c(=O)[nH]nc5c4cc3-c3ccccc3)cc2)CCC1 at 2000 nM | - | 101 | 140 | 107 | - | 291 | 454 | 88.0 | 168 | - | 251 | 154 | 158 | 236 | 164 |
| CC1(C)CCC(c2ccc(Cl)cc2)=C(CN2CCN(c3ccc(C(=O)NS(=O)(=O)c4ccc(N[C@H](CCN5CCOCC5)CSc5ccccc5)c(S(=O)(=O)C(F)(F)F)c4)cc3)CC2)C1 at 2000 nM | - | 159 | 184 | 261 | - | 662 | 2250 | 426 | 450 | 170 | 1550 | 584 | 241 | 219 | 181 |
| C[C@]12O[C@H](C[C@]1(O)CO)n1c3ccccc3c3c4c(c5c6ccccc6n2c5c31)CNC4=O at 20 nM | - | 112 | 161 | 134 | - | 113 | 103 | 104 | 364 | 120 | 170 | 120 | 235 | 137 | 140 |
| CCCCCCCCCCCCCCCCCCOP(=O)([O-])OC1CC[N+](C)(C)CC1 at 2000 nM | - | 64.9 | 143 | 402 | - | 356 | 212 | 85.5 | 447 | 301 | 296 | 173 | 260 | 162 | 230 |
| Cc1cc(N2CCOCC2)cc2[nH]c(-c3c(NC[C@@H](O)c4cccc(Cl)c4)cc[nH]c3=O)nc12 at 1000 nM | - | 59.0 | 99.9 | 125 | - | 112 | 588 | 103 | 282 | 419 | 523 | 279 | 294 | 164 | 110 |
| C=CCNC1=C2C[C@@H](C)C[C@H](OC)[C@H](O)[C@@H](C)/C=C(\C)[C@H](OC(N)=O)[C@@H](OC)/C=C\C=C(/C)C(=O)NC(=CC1=O)C2=O at 10 nM | - | 240 | 104 | 809 | - | 590 | 463 | 193 | 378 | 47.2 | 284 | 523 | 451 | 165 | 145 |
| CN(NC(=O)CC(=O)NN(C)C(=S)c1ccccc1)C(=S)c1ccccc1 at 30 nM | - | 141 | 299 | 225 | - | 449 | 523 | 54.9 | 3810 | - | 219 | 2420 | 417 | 148 | 1160 |
| CS(=O)(=O)c1ccc(C(=O)Nc2ccc(Cl)c(-c3ccccn3)c2)c(Cl)c1 at 5000 nM | - | 308 | 152 | 84.7 | - | 230 | 190 | 85.4 | 127 | 242 | 265 | 149 | 94.5 | 109 | 95.3 |
| c1cc(-c2cnn3cc(-c4ccc(OCCN5CCCCC5)cc4)cnc23)ccn1 at 2000 nM | - | 149 | 141 | 276 | 203 | 239 | 866 | 183 | 350 | - | 170 | 108 | 185 | 199 | 135 |
| N#CC[C@H](C1CCCC1)n1cc(-c2ncnc3[nH]ccc23)cn1 at 5000 nM | - | 143 | 190 | 247 | - | 352 | 121 | 72.1 | 332 | 243 | 431 | 290 | 225 | 168 | 152 |
| CCCCCCCCCCCC1=C(O)C(=O)C=C(O)C1=O at 6000 nM | 51.6 | 51.4 | 23.2 | 123 | 362 | 204 | 178 | 131 | 562 | 300 | 115 | 98.6 | 246 | 81.7 | 129 |
| N#Cc1c(O)c2c(-c3ccc(-c4ccccc4O)cc3)csc2[nH]c1=O at 10000 nM | 141 | 141 | 96.4 | 274 | 49.4 | 83.2 | 563 | 153 | 257 | 89.5 | 109 | 220 | 155 | 130 | 139 |
| CCCCCCCCc1ccc(CCC(N)(CO)CO)cc1 at 10000 nM | - | 183 | 199 | 3030 | - | 4420 | 976 | 79.7 | 5520 | 13600 | 3110 | 771 | 464 | 150 | 2880 |
| Cc1nc(Nc2ncc(C(=O)Nc3c(C)cccc3Cl)s2)cc(N2CCN(CCO)CC2)n1 at 20 nM | - | 682 | 84.7 | 302 | - | 153 | 320 | 184 | 426 | 238 | 135 | 75.0 | 139 | 227 | 128 |
| Clc1ccc(Nc2nnc(Cc3ccncc3)c3ccccc23)cc1 at 10000 nM | - | 208 | 329 | 420 | - | 1050 | 325 | 461 | 410 | 364 | 665 | 154 | 128 | 193 | 224 |
| O=C1NC(=O)/C(=C/c2ccc(-c3ccc(F)cc3O)o2)S1 at 5000 nM | 98.7 | 46.3 | 125 | 309 | 114 | 186 | 181 | 113 | 502 | 92.2 | 117 | 125 | 172 | 191 | 144 |
| NC(=O)c1ccc(N(C(N)=O)c2c(F)cccc2F)nc1-c1ccc(F)cc1F at 2000 nM | - | 88.1 | 245 | 128 | - | 121 | 193 | 38.2 | 75.8 | 87.6 | 75.9 | 212 | 161 | 117 | 83.3 |
| C=C(c1ccc(C(=O)O)cc1)c1cc2c(cc1C)C(C)(C)CCC2(C)C at 10000 nM | - | 366 | 60.2 | 67.2 | - | 153 | 400 | 108 | 539 | 155 | 357 | 207 | 223 | 159 | 125 |
| O=c1[nH]nc(Sc2ncc([N+](=O)[O-])s2)n1-c1ccc2c(c1)OCCO2 at 1000 nM | - | 56.6 | 496 | 217 | - | 314 | 1430 | 150 | 160 | 199 | 609 | 215 | 323 | 125 | 151 |
| Cn1nnc2c(C(N)=O)ncn2c1=O at 10000 nM | - | 216 | 125 | 1110 | - | 143 | 235 | 226 | 495 | 45.6 | 241 | 140 | 689 | 159 | 150 |
| O=c1cc(-c2cccc3c2Sc2ccccc2S3)oc(N2CCOCC2)c1 at 5000 nM | 116 | 297 | 147 | 223 | 145 | 254 | 225 | 55.1 | 743 | 276 | 189 | 119 | 134 | 57.0 | 186 |
| CC(=O)c1c(C)c2cnc(Nc3ccc(N4CCNCC4)cn3)nc2n(C2CCCC2)c1=O at 200 nM | - | 153 | 138 | 323 | - | 236 | 661 | 53.1 | 178 | 164 | 126 | 74.1 | 93.8 | 78.3 | 180 |

Once more, the final 3:

| Partner | 501mel | LOX IMVI | COLO 829 | RPMI-7951 | A375 | G-361 | WM115 | IPC-298 | A2058 | LB2518-MEL | WM3526 | MeWo | SK-MEL-5 | UACC-62 | WM3619 |
|---|---|---|---|---|---|---|---|---|---|---|---|---|---|---|---|
| Cn1nnc2c(C(N)=O)ncn2c1=O at 10000 nM | - | 216 | 125 | 1110 | - | 143 | 235 | 226 | 495 | 45.6 | 241 | 140 | 689 | 159 | 150 |
| O=c1cc(-c2cccc3c2Sc2ccccc2S3)oc(N2CCOCC2)c1 at 5000 nM | 116 | 297 | 147 | 223 | 145 | 254 | 225 | 55.1 | 743 | 276 | 189 | 119 | 134 | 57.0 | 186 |
| CC(=O)c1c(C)c2cnc(Nc3ccc(N4CCNCC4)cn3)nc2n(C2CCCC2)c1=O at 200 nM | - | 153 | 138 | 323 | - | 236 | 661 | 53.1 | 178 | 164 | 126 | 74.1 | 93.8 | 78.3 | 180 |